The source of these data is publication PMC7037636, “Synthesis of New Series of 2-C-(β-D-glucopyranosyl)-Pyrimidines and Their Evaluation as Inhibitors of Some Glycoenzymes” (Molecules, 2020).

The subject of this data set is T1, bovine liver β-galactosidase.
T1 construct: gene GLB1; commercial native enzyme from bovine liver (Sigma-Aldrich)
Nature of the data set: PNP-β-Gal hydrolysis, absorbance at […] nm. Type of data set: biochemical, Bos taurus. To be noted: 1 mM PNP-β-Gal, citrate-phosphate buffer pH 7.3, 37 °C, 0.12 mg/mL enzyme.

For `CCOC(=O)c1cnc([C@@H]2O[C@H](CO)[C@@H](O)[C@H](O)[C@H]2O)nc1N` [11b, Ethyl 4-amino-2-(β-D-glucopyranosyl)-pirimidine-5-carboxylate], the Inh. (3600 µM) amounted to 40%. `N#Cc1c(N)nc([C@@H]2O[C@H](CO)[C@@H](O)[C@H](O)[C@H]2O)nc1-c1ccccc1` [11e, 4-Amino-2-(β-D-glucopyranosyl)-6-phenyl-pirimidine-5-carbonitrile] gave an Inh. (3000 µM) of 56%.

On to `N#Cc1c(-c2ccccc2)nc([C@@H]2O[C@H](CO)[C@@H](O)[C@H](O)[C@H]2O)[nH]c1=O` [11f, 2-(β-D-Glucopyranosyl)-4-phenyl-6-oxo-1,6-dihydropyrimidine-5-carbonitrile], for which the Inh. (3600 µM) is 40%.

In turn, `COC(=O)c1c(-c2ccccc2)nc([C@@H]2O[C@H](CO)[C@@H](O)[C@H](O)[C@H]2O)[nH]c1=O` [11g, Methyl 2-(β-D-glucopyranosyl)-4-phenyl-6-oxo-1,6-dihydropyrimidine-5-carboxylate] gave an Inh. (3000 µM) of 85%.

`OC[C@H]1O[C@@H](c2ncc(-c3ccccc3)cn2)[C@H](O)[C@@H](O)[C@@H]1O` [18e, 2-(β-D-Glucopyranosyl)-5-phenylpyrimidine]: the Inh. (3600 µM) was 30%. The compound `COC(=O)c1cnc([C@@H]2O[C@H](CO)[C@@H](O)[C@H](O)[C@H]2O)nc1` [18f, Methyl 2-(β-D-glucopyranosyl)-pyrimidine-5-carboxylate] gave an Inh. (3800 µM) of 50%.
